Results reported in patent publication US20260167685A1 (NANJING ANJI BIOTECHNOLOGY CO., LTD, priority 2023, published 2026).

Assay: general procedure: Fmoc solid-phase peptide synthesis; Fmoc-Thr-wang-resin
Details: whole synthesis, 220 nm, scale 1 mmol

B1: micropeptide HMBJ (peptide, listed as Homo sapiens)
chain: MEAKLRVLVPAETGISETHDEHETFSLSLGSHSATQMNGVTFPHVTLLSLLLRAGPLHNLFKCSQLSLAPT
  final HPLC purity: 95.86%
